From patent US20170044222A1, “Anti-Microbial Coatings and Devices” (priority 2015, published 2017)
Some entries share one result that the patent states for a list of compounds.

Test: QCM-D mass attachment, layer thickness and areal mass of tether/peptide layers (Sauerbrey and Voigt-Kelvin)
Format: physicochemical
Conditions: Voigt-Kelvin thickness vs theoretical maximum
Protocol: Referring to FIG. 1, the surface is functionalized with the anti-microbial peptide via a flexible linker molecule and exposed to bacteria in the QCM-D using QCM-D sensors as the substrate. Referring to FIG. 2 QCM-D was used to monitor covalent attachment in real-time of the PEG spacer molecule followed by introduction of the C-CHY1 peptide to the functionalized SiO2 surface (FIG. 2). According to the Sauerbrey calculation, the Δm due to PEG spacers is between 2 and 100 ng per crystal (Table 1, below; FIG. 3). The mass of PEG attached decreases with increasing tether length (FIG. 3). PEGylated surfaces show a rigid surface (ΔD values from +1×10^−6 to +2×10^−6 Hz) compared to the bulk fluid baseline, validating the use of Eqn. […]
Where ηL is the viscosity of the bulk liquid assumed to be water (kg/m·s); δL, and δf are the decay lengths of the acoustic wave in the bulk liquid and film (m), respectively; mq and mf […], respectively; ρf is the film density (kg/m^3). […] Model step size and output ranges were changed based on calculated theoretical values using estimated extended molecule size, and the lowest chi square value (χ^2) was taken. […]
Changes in frequency (Δf, Hz) and dissipation (ΔD, ×10-6 Hz) at the 3rd, 5th, 7th, 9th and 11th overtones were monitored at a constant 23° C. in all chambers using a Q-Sense E4 QCM-D system (Biolin Scientific, Stockholm, Sweden). […]

Maleimide PEG N-hydroxysuccinimide ester [PEG 866]
extension of layer: modelled thickness as percent of theoretical maximum thickness: greater than 75%
